Experiment [1] has as its target T1, human fibrin (human) (UniProt P02671+P02675+P02679). Put plainly: fibrin-coated plate, wash, then chromogenic plasminogen activation read-out (OD405).
The target of experiment [2] is T1, human fibrin (human). Put plainly: ELISA on thrombin-treated fibrin plate. In general terms: An ELISA detects its analyte on a solid surface through an enzyme-linked reagent.

The chains behind the UniProt entries cited, without tags or fusion partners. Where a name states a change or a piece, a line headed by the entry shows the natural chain unless it says otherwise.
UniProt P02671: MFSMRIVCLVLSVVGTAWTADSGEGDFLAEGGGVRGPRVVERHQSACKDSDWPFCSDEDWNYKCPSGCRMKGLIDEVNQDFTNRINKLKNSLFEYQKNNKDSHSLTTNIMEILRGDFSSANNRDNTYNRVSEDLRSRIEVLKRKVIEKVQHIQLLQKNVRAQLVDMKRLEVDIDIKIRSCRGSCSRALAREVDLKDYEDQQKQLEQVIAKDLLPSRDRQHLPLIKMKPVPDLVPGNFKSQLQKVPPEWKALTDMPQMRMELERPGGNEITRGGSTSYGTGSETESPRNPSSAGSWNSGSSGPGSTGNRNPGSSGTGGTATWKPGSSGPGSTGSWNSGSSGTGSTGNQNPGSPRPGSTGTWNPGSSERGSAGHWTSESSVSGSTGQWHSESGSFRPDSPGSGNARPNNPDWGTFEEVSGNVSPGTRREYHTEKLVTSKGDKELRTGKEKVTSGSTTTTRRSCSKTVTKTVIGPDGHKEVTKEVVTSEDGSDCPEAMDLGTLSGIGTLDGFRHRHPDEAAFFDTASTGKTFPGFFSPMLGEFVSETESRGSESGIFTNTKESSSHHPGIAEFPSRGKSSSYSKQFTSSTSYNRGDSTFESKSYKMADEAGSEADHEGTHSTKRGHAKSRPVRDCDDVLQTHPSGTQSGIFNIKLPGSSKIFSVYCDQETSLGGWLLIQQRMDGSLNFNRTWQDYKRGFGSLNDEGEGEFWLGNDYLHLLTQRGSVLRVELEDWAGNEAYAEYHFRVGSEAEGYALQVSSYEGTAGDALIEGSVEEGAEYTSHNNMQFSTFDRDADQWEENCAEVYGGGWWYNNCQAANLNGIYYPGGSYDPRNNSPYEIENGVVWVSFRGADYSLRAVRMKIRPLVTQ
UniProt P02675: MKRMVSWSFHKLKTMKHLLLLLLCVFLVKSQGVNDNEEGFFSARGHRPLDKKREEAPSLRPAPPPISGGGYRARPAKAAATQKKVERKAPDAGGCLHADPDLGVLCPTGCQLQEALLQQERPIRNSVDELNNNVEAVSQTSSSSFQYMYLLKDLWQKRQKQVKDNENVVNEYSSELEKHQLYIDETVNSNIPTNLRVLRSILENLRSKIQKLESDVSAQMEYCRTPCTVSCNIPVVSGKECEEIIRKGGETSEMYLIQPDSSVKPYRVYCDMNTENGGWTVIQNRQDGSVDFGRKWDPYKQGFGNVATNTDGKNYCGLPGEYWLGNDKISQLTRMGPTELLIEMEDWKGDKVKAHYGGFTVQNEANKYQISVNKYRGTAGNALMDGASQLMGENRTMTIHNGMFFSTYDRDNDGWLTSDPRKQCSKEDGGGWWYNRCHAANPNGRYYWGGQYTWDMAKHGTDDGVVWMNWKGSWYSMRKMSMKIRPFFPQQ
UniProt P02679: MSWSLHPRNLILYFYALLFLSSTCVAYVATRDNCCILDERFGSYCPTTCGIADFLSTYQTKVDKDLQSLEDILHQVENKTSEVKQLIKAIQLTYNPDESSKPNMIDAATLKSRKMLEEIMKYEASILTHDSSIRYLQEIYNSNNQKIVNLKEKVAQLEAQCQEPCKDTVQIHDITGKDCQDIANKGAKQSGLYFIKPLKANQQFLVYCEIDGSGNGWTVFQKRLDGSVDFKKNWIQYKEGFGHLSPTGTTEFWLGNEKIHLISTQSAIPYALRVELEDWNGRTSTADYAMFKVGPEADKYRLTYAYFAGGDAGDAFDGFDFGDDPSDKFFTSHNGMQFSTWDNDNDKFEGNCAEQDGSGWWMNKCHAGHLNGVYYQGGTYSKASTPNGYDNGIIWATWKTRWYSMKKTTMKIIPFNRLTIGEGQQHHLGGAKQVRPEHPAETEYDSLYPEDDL

These are yes or no findings as the source states them, for the method shown. Some binding calls cover weakened binding; strength is not graded here.

B1: (reteplase)-(scFv α fibrin) (protein)
chain: SYQGNSDCYFGNGSAYRGTHSLTESGASCLPWNSMILIGKVYTAQNPSAQALGLGKHNYCRNPDGDAKPWCHVLKNRRLTWEYCDVPSCSTCGLRQYSQPQFRIKGGLFADIASHPWQAAIFAKHRRSPGERFLCGGILISSCWILSAAHCFQERFPPHHLTVILGRTYRVVPGEEEQKFEVEKYIVHKEFDDDTYDNDIALLQLKSDSSRCAQESSVVRTVCLPPADLQLPDWTECELSGYGKHEALSPFYSERLKEAHVRLYPSSRCTSQHLLNRTVTDNMLCAGDTRSGGPQANLHDACQGDSGGPLVCLNDGRMTLVGIISWGLGCGQKDVPGVYTKVTNYLDWIRDNMRPASGGGGSGGGGSGGGGSDIQMTQSPSSLSASLGGKVTITCKASQDINKYIAWFQHKPGKGPRLLIHYTSTLQPGIPSRFSGSGSGRDYSFSISNLEPEDLATYYCLQYDNLTWTFGGGTKLEIKRGSTSGSGKPGSGEGSTKGQIQLVQSGPELKKPGETVKISCKASGYTFTNYGMNWVKQAPGKGLKWMGWINTYTGEATYADDFKGRFAFSLETSANTAYVQINNLKNEDTATYFCARLMDYWGQGTSVTVSS
Turning to B1, the binding entry with human fibrin (human) [1] was “binds”.

B2: 102-10 scFv specific for human fibrin (scFv)
scFv: DIQMTQSPSSLSASLGGKVTITCKASQDINKYIAWFQHKPGKGPRLLIHYTSTLQPGIPSRFSGSGSGRDYSFSISNLEPEDLATYYCLQYDNLTWTFGGGTKLEIKRGSTSGSGKPGSGEGSTKGQIQLVQSGPELKKPGETVKISCKASGYTFTNYGMNWVKQAPGKGLKWMGWINTYTGEATYADDFKGRFAFSLETSANTAYVQINNLKNEDTATYFCARLMDYWGQGTSVTVSSGGGGSGGGGSC
In the case of B2, the binding result with human fibrin (human) [2] is on record as “binds”.

Values taken from patent publication EP3344659B1.
